# Data published in PubChem BioAssay AID1347423 (Functional Genomics Laboratory (NCATS/FGL), 2020).
# The campaign covered roughly 52,000 sequences. About 210 (0.4%) were called active.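 Rule for the calls: active = gene whose silencing raises cell survival under the drug, median off-target-corrected z-score across its silencing RNAs 2 or more; inactive = the rest.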 The list shows a part of the results.
# Experiment: Resistance to Poly (ADP-Ribose) Polymerase inhibitor: Gene Identification via Genome-wide siRNA Screen
# Settings: mouse BRCA2 R2336H ES cells, olaparib, CellTiter-Glo viability; stronger effect = higher value
# Method in brief: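 Genome-wide siRNA screen (3 siRNAs/gene, 20 nM) in mouse ES cells carrying hypomorphic BRCA2 R2336H; olaparib 500 nM added 48 h post-transfection, CellTiter-Glo viability 72 h later. Normalized to plate-median negative control; MAD z-scores, gene median, seed-adjusted.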
row,Sequence,z-score
1,CCAUAAUUAGGGAAUCCAGTT against Itga5,inactive: 0.105
2,GGACAAACUAUGGUACCAGTT against Phldb1,inactive: -0.0862
3,GGAACGUGAACUUUGUAUUTT against Nek2,inactive: 0.177
4,GCAGGAUUCAUGUAAAUAGTT against 6720425G15Rik,inactive: -1.07
5,GGAACUAGCACAAUGGUUCTT against AW050020,inactive: -1.23
6,GCAUCAGAUAUCAGGGCAUTT against Pabpc2,inactive: 0.219
7,CCGAAAAAUGUCCAAAUCGTT against Chx10,inactive: 1.6
8,GGUCUGUGGGAAACAUAAATT against Gria3,inactive: -1.78
9,GGCACUGCCAUUAACAAAATT against Nrip1,inactive: 1.57
10,GGGAGCUAAGUACAGCAAGTT against Abt1,inactive: 0.299
11,GGCUCCGGUAAAGCUAUAUTT against 2700078E11Rik,inactive: -1.8
12,GCAUUGUGAAUAUUCAGAUTT against Lass4,inactive: -0.0966
13,GCCUCGAGUAGAGUAUUCUTT against BC062109,inactive: 2.66
14,GGACUCAGAACUUGUGUAUTT against Wnt11,inactive: -1.5
15,CCUGUCACGUCUUGUUUCCTT against Cpn2,inactive: -0.607
16,GGGUUUCAUCCAGGAUCGATT against Bax,inactive: 0.415
17,GGUGGUUUGCUCAUUAGAUTT against Cdk5r1,inactive: -0.28
18,GCUCCUCCAGAUACAUGCUTT against Tbrg1,inactive: 0.949
19,GGAACAAAAGGUUCCUUUUTT against BC060737,inactive: 0.0794
20,GCCGCUUCUAUUUUCGUGGTT against Glra4,inactive: -0.193
21,GCCACACUUAAGUCAGACCTT against C430004E15Rik,inactive: -0.454
22,CCGAACUCCUCAGAAUACGTT against B830021E24Rik,inactive: 0.735
23,GGCCUUCAUCCAACUCUGUTT against Ttc16,inactive: -0.802

row,Sequence,z-score
1,CCUCCCUCACUCAAAUUGGTT against Bok,inactive: -0.216
2,CCUUUUUUUGGUAACUCGUTT against Sox11,inactive: 0.265
3,GGUCUUGGGAGAAGAUACATT against Gem,inactive: 0.548
4,GGCUUAAUAUAUCUUGUUCTT against A530015O12Rik,inactive: -0.59
5,GGAGCACAAUUCAAAUUCATT against Zfp482,inactive: 1.92
6,CCUGAUUCAUAUCACUAUUTT against Gpr82,inactive: 0.0325
7,GGUAUUCCUCUAGAUCAGATT against Dysf,inactive: 0.94
8,GGAACAAGUACAUACUUAUTT against Frs2,inactive: 1.91
9,GGACCUUGCUAAGAAGUACTT against 6330412F12Rik,inactive: -0.732
10,GGCUGUAUGCUCAGACUGATT against Olfr147,inactive: -0.458
11,GGAAAUACUCUCAUCAUCGTT against Olfr214,inactive: -0.495
12,CCUGUUGCUCAAAGACUUGTT against Sn,inactive: -0.457
13,CGACAAUACUCUAUUGUUUTT against A430081C19Rik,inactive: 1.93
14,GCUCAUGCAUGGCUGUACATT against E430029F06,inactive: -3.24
15,AAUAGACUGGUACUCUCUGTT against Olfr476,inactive: -0.919
16,CCUCUUAGCCGGGUAGAGATT against S100a16,inactive: 0.404
17,CGCAGAGGUUUUACUUUAATT against Mycbpap,inactive: -0.757
18,GGAUAUUAUUCUCACACUATT against Ddx6,inactive: -1.98
19,CCCAAAACUACGACUCCUGTT against Dpf3,inactive: 0.874
20,GGACUUCUACCCAGCGAUATT against 1110036O03Rik,inactive: 0.243
21,GGAAAUUCCGAGGAUGGAATT against H2-M3,inactive: 0.0213
22,GCUGAAACCGCUAUUAAAUTT against Pou3f4,inactive: 0.856
23,GCCAUGUUCCCAUUUAACUTT against A730018C14Rik,inactive: 1.11

# An excerpt of these results, with tabs:
row	Sequence	z-score
4	GGCUUAAUAUAUCUUGUUCTT against A530015O12Rik	inactive: -0.59
7	GGUAUUCCUCUAGAUCAGATT against Dysf	inactive: 0.94
9	GGACCUUGCUAAGAAGUACTT against 6330412F12Rik	inactive: -0.732
10	GGCUGUAUGCUCAGACUGATT against Olfr147	inactive: -0.458
22	GCUGAAACCGCUAUUAAAUTT against Pou3f4	inactive: 0.856

# Carrying on:

row,Sequence,z-score
1,GGAUGUGCCCAACUGGAAGTT against Grim19,inactive: 0.913
2,GGUUAUCAUGAGGCCUUGGTT against Olfr1339,inactive: -0.71
3,GGACAAAGGUGAAAACGGUTT against Gpr19,inactive: 0.583
4,CCAUUGUAUAGGAAAGUGATT against Nras,inactive: -0.337
5,GGGCUAUAACCCUGAAGAUTT against Rarg,active: 1.67
6,CGGUUGUUAAAAAAAGUCATT against Atad2,inactive: 0.25
7,GGUGAUUGUACUGUCAGCUTT against Olfr1221,inactive: -0.521
8,GGUAGAUCAGUAAUAGUUATT against Glrb,inactive: 2.9
9,GGGCUACUCAAAGAAGAUATT against Galnt5,inactive: -0.514
10,CCAUAAACUAUGAGUUUUGTT against Elovl7,inactive: 0.552
11,GGUUUUUGAUGAUUGCUUUTT against Dirc2,inactive: 0.411
12,GGGACACAAAGACACCGUGTT against Wdr10,inactive: -0.406
13,CCAACCUUUCCGCAUGAUGTT against 2310051D06Rik,inactive: 0.224
14,GGCCUGAAGAAACACGAGATT against C1qtnf1,inactive: 0.738
15,GGAAUUCGUCAACAACAUGTT against Csna,inactive: -0.346
16,CCAUAUCCCUGUGGAAAAGTT against Armet,inactive: -2.82
17,GGAUGCUCUAAGUUGGAGUTT against Tinf2,inactive: -1.16
18,GGGAUUGUUCAAAUGCUAUTT against Cldn8,inactive: 1.58
19,GGUCCAUGGGUAAGAGGAUTT against V1ra5,inactive: 0.192
20,CGUCAAGCGAGGAAACUCUTT against 1700027A23Rik,inactive: -0.684
21,CCACGGAGCAGAUAUGCUGTT against Mare,inactive: 0.115
